From patent US20130195866A1, “METHODS TO INHIBIT NEURODEGENERATION” (priority 2010, published 2013)
“Also recorded” adds a separate entry of the source. For at least one compound, name, drawing or mass did not settle the structure.

Experiments:
[1] = system: wild-type cultured neurons growing in TgCM; assay: TgCM-induced morphological abnormalities in wild-type cultured neurons; type: cell-based, mouse; details: primary neurons treated with TgCM for 24 h; 1 μM FK506, 2 μM VIVIT or AKAP79 transfection (FIG. 8I)
APP transgenic mice = APP transgenic mice (Dineley et al., 2007; Taglialatela et al., 2009); cited from earlier work

C=CC[C@@H]1/C=C(\C)C[C@H](C)C[C@H](OC)[C@H]2O[C@@](O)(C(=O)C(=O)N3CCCC[C@H]3C(=O)O[C@H](/C(C)=C/[C@@H]3CC[C@@H](O)[C@H](OC)C3)[C@H](C)[C@@H](O)CC1=O)[C@H](C)C[C@@H]2OC [FK506, tacrolimus (FK506)]
spine density [1]: blocked; also recorded: restored
memory function (APP transgenic mice): improve memory function
